These results are taken from publication PMC12583513, “Deciphering the molecular mechanism of the bacterial division motor TolQRA” (Cell Discovery, 2025).

Sequences of proteins named here, by UniProt entry; tags and fusion partners are left off.
UniProt P0ABV6: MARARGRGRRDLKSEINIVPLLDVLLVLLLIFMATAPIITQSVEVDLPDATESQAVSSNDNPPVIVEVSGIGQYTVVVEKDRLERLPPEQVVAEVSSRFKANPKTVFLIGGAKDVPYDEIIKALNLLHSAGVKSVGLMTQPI

Results are given in words; binding and its absence hold for the method and conditions named. In cells and extracts the contact can be indirect. Some entries that bind do so weakly or less than the wild type. Tags and fused reporters may be left off the sequences shown.

The target in the test is T1, TolA_H22A with C-terminal eight-histidine tag (Escherichia coli (strain K12)) (UniProt P19934).
T1 sequence: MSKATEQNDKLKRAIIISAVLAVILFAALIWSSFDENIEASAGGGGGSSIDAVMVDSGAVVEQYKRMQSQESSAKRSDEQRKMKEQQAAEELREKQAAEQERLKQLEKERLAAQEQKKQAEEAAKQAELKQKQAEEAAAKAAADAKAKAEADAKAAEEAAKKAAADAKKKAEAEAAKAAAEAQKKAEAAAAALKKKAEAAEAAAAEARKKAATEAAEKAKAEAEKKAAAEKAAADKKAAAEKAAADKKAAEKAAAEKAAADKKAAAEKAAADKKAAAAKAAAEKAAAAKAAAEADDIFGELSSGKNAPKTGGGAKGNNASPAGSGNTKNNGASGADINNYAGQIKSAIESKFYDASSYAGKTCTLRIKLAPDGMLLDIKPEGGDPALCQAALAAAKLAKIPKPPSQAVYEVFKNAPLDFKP
Kind of test: pull-down; Ni-NTA agarose capture of TolA-His from 1% DDM-solubilised lysate of TolQRA knockout cells expressing pTRC99a-TolQ(Myc)R(Strep)A(His) variants; wash 30 mM imidazole, 0.02% LMNG, 0.004% CHS; western blot with anti-His, anti-Myc, anti-Strep. In general terms: Immunoblotting shows a protein as a band on a membrane.

Regarding “TolR with C-terminal strep-tag (from UniProt P0ABV6 1-142)”, the binding result is given as “binds”.
